Data taken from PubChem BioAssay AID720533 (National Center for Advancing Translational Sciences (NCATS), 2013).
Several values for one entry are separate records, joined by “and”; a condition that tells them apart may be missing. Equal values may be shown once. About 750 (4.2%) of roughly 18,000 compounds were called active. Inconclusive results, whose numbers are uncertain, are shown with a selection of clear calls. The call rests on the fitted dose curve; tested in HEK293 cells. Potencies of inconclusive entries are doubtful fits and often do not repeat.

Experiment: qHTS for Inhibitors of binding or entry into cells for Lassa Virus
Settings: Lassa virus pseudotyped entry inhibition, cell-based qHTS; activity change, negative = inhibition: at 49.2 µM (top of the series) unless noted
On the % scale 0 is the no-effect control and ±100 the full control effect; potency means the concentration at half of the fitted maximal effect.

Structure (SMILES)	Potency	activity change, negative = inhibition
COc1ccc2c(c1)C(=O)[C@H](OC(=O)NS(=O)(=O)c1ccc(F)cc1)[C@@H](c1ccc(OC)c(Br)c1)O2	inactive	
CCCNCC(O)COc1ccccc1C(=O)CCc1ccccc1 (centres undefined)	inconclusive: 28.2 µM [inhibitor, partial curve] and inconclusive: 28.2 µM [inhibitor, single point] and inconclusive: 15.8 µM [inhibitor, single point]	
CCOC(=O)CCN1C(=O)[C@@H]2[C@H]3[C@H](O)[C@H](O)CC(=NOCC(C)C)[C@@H]3CC[C@H]2C1=O		inactive: -24.6% [at 8.59 µM]
CC(C)(C)CC(C)(C)c1ccc(OCCO)cc1	inconclusive: 20 µM [inhibitor, partial curve, poor fit]	
COc1ccc2ccccc2c1CN1CCC2(CCC(CNC(=O)c3ccccc3)O2)CC1 (centres undefined)	inactive	
C[C@@H]1CN(Cc2ccc3c(c2)CN(Cc2cccc4c2OCO4)CCO3)C[C@H](C)O1	inactive	
O=C(NCC1(N2CCOCC2)CCCC1)c1cnn(-c2ncc3c(n2)-c2ccccc2CC3)c1C1CC1	inactive	
CCN1C[C@]2(COC)[C@H](O)C[C@H](OC)[C@@]34[C@@H]5C[C@@]6(O)[C@H](OC(=O)c7ccccc7)[C@@H]5[C@@](OC(C)=O)([C@@H]([C@H](OC)[C@H]23)[C@@H]14)[C@@H](O)[C@@H]6OC	inconclusive: 3.98 µM [inhibitor, full curve]	
COc1cccc(CN2c3ccc(Br)cc3C(O)CS2(=O)=O)c1 (centres undefined)	inactive	
COc1ccc2c(c1)[C@@]1(C)CCC[C@](C)(CO)C1CC2 (some centres undefined)	inconclusive: 25.1 µM [inhibitor, partial curve]	
Clc1cccc(C(c2ccc3nc[nH]c3c2)n2ccnc2)c1 (centres undefined)	inconclusive: 35.5 µM [inhibitor, partial curve, poor fit]	
COC(=O)c1c(OCc2ccccn2)cc(=O)n2c1CCN(Cc1cccc(C(F)(F)F)c1)CC2	inactive	
Oc1ccc2c(c1)[C@@]13CCCCC1[C@@H](C2)N(CC1CCC1)CC3 (some centres undefined)	inconclusive: 11.2 µM [inhibitor, partial curve, poor fit]	
C[C@]12CCC(=O)C=C1CC[C@@H]1C2[C@@H](O)C[C@@]2(C)[C@H]1CC[C@]2(O)C(=O)CO (some centres undefined)	inactive	
CC(=O)Nc1ccccc1-c1nc(CNC(=O)c2cccc(-n3cccn3)c2)c(C)o1	inconclusive: 25.1 µM [inhibitor, partial curve]	
COc1cccc(-c2cc(=O)c3cc(NC(=O)c4ccc(C)cc4)ccc3[nH]2)c1	inconclusive: 0.501 µM [inhibitor, full curve, poor fit]	
CCCCCCCCCCCCCCCCOC[C@H](COP(=O)([O-])OCC[N+](C)(C)C)OC(=O)CCCCCCCC(=O)O	inconclusive: 35.5 µM [inhibitor, single point]	
Cc1cc(OCc2cn(CC(=O)c3ccc(O)cc3)nn2)cc(C)c1C		inconclusive: -18.3% [inhibitor]
Cc1c(C(=O)NCC2(N3CCOCC3)CCCC2)cnn1-c1nccc(-c2ccccc2F)n1	inactive	
COc1ccc(-c2cc(-c3cn[nH]c3-c3ccccn3)ccn2)cc1	inactive	

Structure (SMILES)	Potency	activity change, negative = inhibition
CCN(CC)CC1CCN(c2ncc3ncnc(Nc4ccc(F)c(Cl)c4)c3n2)CC1	inconclusive: 35.5 µM [inhibitor, single point]	
O=C1C[C@@H](c2ccc(O)cc2)Oc2cc(O)cc(O)c21	inactive	
CC1(OC(=O)c2ccco2)C(=O)C=C2C=C(C3CC3)OC=C2C1=O (centres undefined)	inconclusive: 22.4 µM [inhibitor, single point]	
c1ccc2c(c1)[I+]c1ccccc1-2	active: 0.891 µM	
NC(N)=NN=C(/C=C/c1ccc([N+](=O)[O-])o1)/C=C/c1ccc([N+](=O)[O-])o1	active: 6.31 µM	
CCOC(=O)Oc1c(OC)cc(C(=O)O[C@@H]2C[C@@H]3CN4CCc5c([nH]c6cc(OC)ccc56)[C@H]4C[C@@H]3[C@H](C(=O)OC)[C@H]2OC)cc1OC	inconclusive: 10 µM [inhibitor, partial curve]	
COc1cc(-c2cccc([C@H]3[C@@H]4C=CC[C@@H](C)[C@@H]4C(=O)N3Cc3ccccc3)c2)cc(OC)c1OC	inconclusive: 12.6 µM [inhibitor, single point]	
COC(=O)c1nnc(C(=O)N(C)Cc2ccccc2)c2[nH]c3ccccc3c12	inactive	
COc1ccc(-c2nc3cc(C)ccc3cc2CN(C(=O)c2ccc(C)s2)C2CC2)cc1OC	inconclusive: 35.5 µM [inhibitor, single point]	
O=C(Nc1ccc(Oc2ccc(Cl)cc2)c(Cl)c1)c1cc(I)cc(I)c1O	inconclusive: 35.5 µM [inhibitor, single point]	
CCOC(=O)N1CCN(Cc2ccc3c(c2)CN(C(=O)c2noc4c2CCCC4)CCO3)CC1	inconclusive: 14.1 µM [inhibitor, partial curve]	
CCCCCCCCCCCC[N+](C)(C)Cc1ccccc1	active: 14.1 µM	
COC(=O)C(O)C(O)(CCC(C)C)C(=O)OC1C(OC)=CC23CCCN2CCc2cc4c(cc2C13)OCO4 (centres undefined)	active: 0.126 µM	
CN(Cc1ccccc1)C(=O)[C@H](Cc1ccc2ccccc2c1)NC(=O)[C@@H]1CCCN1C(=O)Nc1ccccc1[N+](=O)[O-]	inconclusive: 14.1 µM [inhibitor, single point]	
C=CCN1CC(COc2ccc(OC)cc2)OCCS1(=O)=O (centres undefined)	inconclusive: 25 µM [inhibitor, single point]	
CC(=O)OC1CC2C(C)(C)C(O)CC[C@@]2(C)C2CC[C@@]3(C)C(c4ccoc4)OC(=O)C4O[C@@]43[C@]12C (some centres undefined)	inconclusive: 35.5 µM [inhibitor, single point]	
Nc1nc(=S)c2[nH]cnc2[nH]1	active: 6.31 µM and active: 2.82 µM	
CC(=O)[C@]1(O)Cc2c(O)c3c(c(O)c2[C@@H](O[C@H]2C[C@H](N)[C@H](O)[C@H](C)O2)C1)C(=O)c1ccccc1C3=O	inconclusive: 3.98 µM [inhibitor, full curve, poor fit]	
